In this experiment the test system is HEK293A TEAD-LUC reporter. As to the kind of experiment: TEAD-luciferase reporter activity (YAP activation), robust Z score vs plate; higher = stronger YAP/TEAD activation. The note with it: 24 h. A general note: Reporter assays use an easily measured gene product as a stand-in for the process of interest.

Counter-ions that a name gives are not always drawn. The list shows a part of the results. Repeats in this data set agree poorly, so a single value says little.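 The human kidney-derived cells carry a stably integrated construct of eight TEAD-binding elements driving luciferase, read by luminescence in a drug-repurposing library screen. A compound counts as a hit when its signal is more than five robust Z scores above the plate mean.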

Take `CCC(=O)O[C@]1(C(=O)CCl)[C@@H](C)C[C@H]2[C@@H]3C[C@H](F)C4=CC(=O)C=C[C@]4(C)[C@@]3(F)[C@@H](O)C[C@@]21C` [Halobetasol propionate]: the TEAD-luciferase reporter activity was inactive: 0.0328 (compound concentration: 200 nM), inactive: 0.0683 (compound concentration: 2 uM) and inactive: 0.245 (compound concentration: 10 uM).

`CC(C)(C)c1cc(-c2nnc(S)s2)cc(C(C)(C)C)c1O`: the TEAD-luciferase reporter activity reads like this: (compound concentration: 200 nM) inactive: -0.179; (compound concentration: 2 uM) inactive: -1.15; (compound concentration: 10 uM) inactive: -0.466.

As for `NC(=O)N/N=C1\C=Cc2ccccc2C1=O`, the TEAD-luciferase reporter activity (compound concentration: 200 nM) was inactive: -1.41, the TEAD-luciferase reporter activity (compound concentration: 2 uM) was inactive: -1.57 and the TEAD-luciferase reporter activity (compound concentration: 10 uM) is inactive: 1.28.

As for `CCN(CC)CCNC(=O)N(CCS(=O)(=O)c1ccccc1)C(C)C` [suricainide], the TEAD-luciferase reporter activity (compound concentration: 200 nM) is inactive: 0.0882, the TEAD-luciferase reporter activity (compound concentration: 2 uM) is inactive: 1.5 and the TEAD-luciferase reporter activity (compound concentration: 10 uM) is inactive: -0.737.

For `C/C(=N\OCc1sc(-c2ccc(C(F)(F)F)cc2)nc1C)c1ccc(OCC(=O)O)c(C)c1`, the TEAD-luciferase reporter activity is inactive: -1.49 (compound concentration: 200 nM), inactive: -0.474 (compound concentration: 2 uM) and inactive: 1.58 (compound concentration: 10 uM).

With `C[C@H](NC(=O)C(=O)Nc1ccccc1C(C)(C)C)C(=O)N[C@@H](CC(=O)O)C(=O)COc1c(F)c(F)cc(F)c1F` [emricasan], the TEAD-luciferase reporter activity (compound concentration: 200 nM) was inactive: -1.74, the TEAD-luciferase reporter activity (compound concentration: 2 uM) is inactive: 0.0546 and the TEAD-luciferase reporter activity (compound concentration: 10 uM) is inactive: -0.897.

On to `c1ccc2c(c1)OC[C@H](CNCCCOc1ccc3c(c1)OCO3)O2`, for which the TEAD-luciferase reporter activity reads like this: (compound concentration: 200 nM) inactive: -0.194; (compound concentration: 2 uM) inactive: -1.8; (compound concentration: 10 uM) inactive: 0.866.

With `O=C(O)CCCn1nc(-c2c(-c3ccccc3)nn3ccccc23)ccc1=O`, the TEAD-luciferase reporter activity reads like this: (compound concentration: 200 nM) inactive: -0.838; (compound concentration: 2 uM) inactive: 0.0716; (compound concentration: 10 uM) inactive: -0.942.

`CNS(=O)(=O)c1cc(OC)c(OC)c(C(=O)NC[C@@H]2CCCCN2C)c1`: the TEAD-luciferase reporter activity by setting is: (compound concentration: 200 nM) inactive: -0.487; (compound concentration: 2 uM) inactive: 1.15; (compound concentration: 10 uM) inactive: -0.197.

In the case of `O=C1c2ccccc2S(=O)(=O)c2cc(-c3nnn[nH]3)ccc21` [Doxantrazole], the TEAD-luciferase reporter activity (compound concentration: 200 nM) is inactive: -1.48, the TEAD-luciferase reporter activity (compound concentration: 2 uM) was inactive: 0.178 and the TEAD-luciferase reporter activity (compound concentration: 10 uM) was inactive: 0.878.

On to `O=C(Nc1c(Cl)cncc1Cl)c1ccc(OC(F)F)c(OCC2CC2)c1` [roflumilast], for which the TEAD-luciferase reporter activity reads like this: (compound concentration: 200 nM) inactive: -3.52; (compound concentration: 2 uM) inactive: -1.43; (compound concentration: 10 uM) inactive: -0.172.

As to `CC(C)NC(=O)C1CCCN(c2nc3ncccc3o2)C1` (configuration not stated), the TEAD-luciferase reporter activity by setting is: (compound concentration: 200 nM) inactive: 0.283; (compound concentration: 10 uM) inactive: 4.35.

Take `CCCCCCCCCCCCOC(=O)c1cc(O)c(O)c(O)c1`: the TEAD-luciferase reporter activity is, setting by setting: (compound concentration: 200 nM) inactive: -0.18; (compound concentration: 2 uM) inactive: -0.0805; (compound concentration: 10 uM) inactive: 2.44.

`Oc1cc2c(cc1O)C(c1ccccc1)CNCC2` (configuration not stated): the TEAD-luciferase reporter activity runs as follows: (compound concentration: 200 nM) inactive: 0.69; (compound concentration: 2 uM) inactive: -1.82; (compound concentration: 10 uM) inactive: 2.21.

Consider `C=C1N(C)C(=O)OC12CCN(CCC=C(c1ccc(F)cc1)c1ccc(F)cc1)CC2`, for which the TEAD-luciferase reporter activity by setting is: (compound concentration: 200 nM) inactive: 0.41; (compound concentration: 2 uM) inactive: -1.19; (compound concentration: 10 uM) inactive: 1.6.

Turning to `COc1ccc([C@]2(O)CC[C@H](N3CC[C@@H](NC(=O)CNC(=O)c4cccc(C(F)(F)F)c4)C3)CC2)cn1`, the TEAD-luciferase reporter activity by setting is: (compound concentration: 200 nM) inactive: 0.887; (compound concentration: 2 uM) inactive: -0.836; (compound concentration: 10 uM) inactive: -0.56.

Regarding `CCCOc1ccc(CNc2ncnc3nc[nH]c23)cc1OC`, the TEAD-luciferase reporter activity reads like this: (compound concentration: 200 nM) inactive: -0.444; (compound concentration: 2 uM) inactive: 0.24; (compound concentration: 10 uM) inactive: -0.511.

For `Cc1c(F)c(N)c2c(=O)cc(-c3ccc(N)c(F)c3)oc2c1F`, the TEAD-luciferase reporter activity is, setting by setting: (compound concentration: 200 nM) inactive: -1.78; (compound concentration: 2 uM) inactive: -1.63; (compound concentration: 10 uM) inactive: -1.83.

Consider `CC(C)[C@@H](NC(=O)[C@@H]1CC[C@@H](O)C1)C(=O)N1CC[C@](O)(c2ccc(Cl)cc2)C(C)(C)C1`, for which the TEAD-luciferase reporter activity was inactive: -0.526 (compound concentration: 200 nM), inactive: 1.66 (compound concentration: 2 uM) and inactive: 0.704 (compound concentration: 10 uM).

`Cc1c(S(=O)(=O)O)oc2c1C(=O)C(=O)c1c-2ccc2c1CCCC2(C)C` [Sodium tanshi    II-A sulfonate]: where the note is “compound concentration: 2 uM”, the TEAD-luciferase reporter activity was inactive: -1.02.

As to `Cc1c(S(=O)(=O)O)oc2c1C(=O)C(=O)c1c-2ccc2c1CCCC2(C)C` [Sodium tanshi II-A sulfonate], the TEAD-luciferase reporter activity (compound concentration: 200 nM) was inactive: -1.49.

Take `Cc1c(S(=O)(=O)O)oc2c1C(=O)C(=O)c1c-2ccc2c1CCCC2(C)C` [Sodium tanshi   II-A sulfonate]: the TEAD-luciferase reporter activity (compound concentration: 10 uM) is inactive: 1.75.

In the case of `CCNC1(C(N)=O)CCN(c2ncnc3c2nc(-c2ccccc2Cl)n3-c2ccc(Cl)cc2)CC1` [Otenabant hydrochloride], the TEAD-luciferase reporter activity (compound concentration: 200 nM) is inactive: 3.4, the TEAD-luciferase reporter activity (compound concentration: 2 uM) is inactive: -0.273 and the TEAD-luciferase reporter activity (compound concentration: 10 uM) was inactive: 3.81.

Consider `CC(C)NCC(O)COC1c2ccccc2C(=O)N1c1ccccc1` (configuration not stated) [nofecainide], for which the TEAD-luciferase reporter activity was inactive: -2.11 (compound concentration: 200 nM), inactive: -0.792 (compound concentration: 2 uM) and inactive: 0.185 (compound concentration: 10 uM).

Take `OCc1ccccc1/C=C/Cc1cc2c(cc1O)CCO2`: the TEAD-luciferase reporter activity by setting is: (compound concentration: 200 nM) inactive: -0.304; (compound concentration: 2 uM) inactive: -1.42; (compound concentration: 10 uM) inactive: 0.706.

For `COc1cccc(OC)c1-c1cc(C(=O)NC2(C(=O)O)C3CC4CC(C3)CC2C4)nn1-c1ccnc2cc(Cl)ccc12` (configuration not stated) [Meclinertant], the TEAD-luciferase reporter activity reads like this: (compound concentration: 200 nM) inactive: -2.53; (compound concentration: 2 uM) inactive: -1.56; (compound concentration: 10 uM) inactive: 1.28.

Regarding `CC(C)C(N)C(=O)NC(Cc1ccc(O)cc1)C(=O)O` (configuration not stated) [Val-Tyr sardine peptidase], the TEAD-luciferase reporter activity by setting is: (compound concentration: 200 nM) inactive: -1.26; (compound concentration: 2 uM) inactive: 0.264; (compound concentration: 10 uM) inactive: 0.62.

In the case of `CC(O)(C(N)=O)c1ccccc1` (configuration not stated), the TEAD-luciferase reporter activity (compound concentration: 200 nM) was inactive: -1.23, the TEAD-luciferase reporter activity (compound concentration: 2 uM) was inactive: -0.623 and the TEAD-luciferase reporter activity (compound concentration: 10 uM) was inactive: -0.313.

These data come from the supplement of paper PMC10735217.
